Measured data: PubChem BioAssay AID1053208 (Peter MacCallum Cancer Centre, 2014)

Aim: 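Synthetic lethal interactions between gene loss and doxorubicin in osteosarcoma cells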 (primary screen)
Cells: mouse osteosarcoma cells, early-passage culture from an engineered mouse model of fibroblastic bone tumour
Knock-down reagent: siRNA pool against mouse genes, 40 nM
Duration: about 120 h (48 h before drug, then 72 h with drug)
Challenge: doxorubicin 100 nM for 72 h, roughly 30-40% inhibitory dose
Read-out: 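Luminescent ATP signal taken as viability with or without 100 nM doxorubicin for 72 h; mean of two wells set against non-targeting siRNA and turned into robust z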
Scale: viability z-score with doxorubicin and doxorubicin viability vs non-targeting: higher = more viable cells under doxorubicin; viability z-score without drug: higher = more viable cells with knock-down alone; z-score of drug to no-drug ratio: higher = less drug sensitisation by knock-down
Rule for the call: 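Called active if knock-down leaves viability unchanged without drug (z within -2 to 2) but lowers it with doxorubicin (z at or under -2)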
In all, the deposit lists about 17,000 reagents; shown is an unselected part. 788 of them (4.7%) were called active. 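Calls rest on z-score classes alone; an extra cut-off of viability at most 70% of control was not applied to them.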 Unmarked entries are inactive.

The first 3 entries, to show the layout:
gene knocked down | combined z-score class | viability z-score with doxorubicin | viability z-score without drug | z-score of drug to no-drug ratio | doxorubicin viability vs non-targeting
Rbmx (RNA binding motif protein, X chromosome) | no change with or without drug | -1.24 | 0.17 | -1.35 | 0.83
Adgrl4 (adhesion G protein-coupled receptor L4) | no change with or without drug | 1.57 | -0.17 | 1.91 | 1.08
Pla2g12a (phospholipase A2, group XIIA) | no change with or without drug | 0 | 0.51 | -0.22 | 0.94

Results, repeating the preview:
gene knocked down | combined z-score class | viability z-score with doxorubicin | viability z-score without drug | z-score of drug to no-drug ratio | doxorubicin viability vs non-targeting
Rbmx (RNA binding motif protein, X chromosome) | no change with or without drug | -1.24 | 0.17 | -1.35 | 0.83
Adgrl4 (adhesion G protein-coupled receptor L4) | no change with or without drug | 1.57 | -0.17 | 1.91 | 1.08
Pla2g12a (phospholipase A2, group XIIA) | no change with or without drug | 0 | 0.51 | -0.22 | 0.94
1600014C10Rik (RIKEN cDNA 1600014C10 gene) | no change with or without drug | 0.22 | 0.17 | 0.22 | 0.96
Necab2 (N-terminal EF-hand calcium binding protein 2) | no change with or without drug | -1.57 | -1.18 | -0.79 | 0.8
Dhdh (dihydrodiol dehydrogenase) | no change with or without drug | -1.8 | 0.67 | -2.14 | 0.78
Atp5me (ATP synthase membrane subunit e) | no change with or without drug | 0.67 | 0 | 0.79 | 1
Ggt1 (gamma-glutamyltransferase 1) | no change with or without drug | 0.56 | -0.17 | 0.79 | 0.99
Tubg1 (tubulin, gamma 1) | no change with or without drug | -0.22 | -1.52 | 1.01 | 0.92
Fgfr1 (fibroblast growth factor receptor 1) | no change with or without drug | -1.57 | -1.18 | -0.79 | 0.8
Aldh3a2 (aldehyde dehydrogenase family 3, subfamily A2) | no change with or without drug | 0.34 | 1.35 | -0.45 | 0.97
Adam5 (a disintegrin and metallopeptidase domain 5) | no change with or without drug | 0.34 | 0.51 | 0.11 | 0.97
Gulp1 (GULP, engulfment adaptor PTB domain containing 1) | no change with or without drug | 1.01 | 0.17 | 1.01 | 1.03
Miso1 (mitochondrial inner membrane subdomain organizer 1) | no change with or without drug | 1.57 | 0.84 | 1.12 | 1.08
Or7g30 (olfactory receptor family 7 subfamily G member 30) | no change with or without drug | -0.67 | 0.17 | -0.67 | 0.88
Csgalnact2 (chondroitin sulfate N-acetylgalactosaminyltransferase 2) | high cell count with doxorubicin only | 2.02 | 1.69 | 1.01 | 1.12
Syt17 (synaptotagmin XVII) | no change with or without drug | 0.9 | -0.17 | 1.24 | 1.02
Hspa12b (heat shock protein family A (Hsp70) member 12B) | no change with or without drug | 0 | 0.17 | 0 | 0.94
Ddx39a (DEAD box helicase 39a) | no change with or without drug | 0.22 | 0.84 | -0.22 | 0.96
Synm (synemin, intermediate filament protein) | high cell count without drug only | 1.35 | 2.36 | -0.11 | 1.06
Ecd (ecdysoneless cell cycle regulator) | no change with or without drug | -1.57 | -1.85 | -0.34 | 0.8
Slc5a9 | no change with or without drug | 0.22 | 0.17 | 0.22 | 0.96
Or2ag15 (olfactory receptor family 2 subfamily AG member 15) | no change with or without drug | 0.22 | 0.17 | 0.22 | 0.96
Mir9-2hg (Mir9-2 host gene) | no change with or without drug | 0.11 | 0.17 | 0.11 | 0.95
Mucl1 (mucin-like 1) | no change with or without drug | 1.46 | 0.34 | 1.35 | 1.07
Cpt1c (carnitine palmitoyltransferase 1c) | no change with or without drug | -0.34 | -0.51 | 0.11 | 0.91
Ccrl2 (C-C motif chemokine receptor-like 2) | no change with or without drug | 0 | 0.51 | -0.22 | 0.94
Psmb2 (proteasome (prosome, macropain) subunit, beta type 2) | low cell count with and without drug | -7.98 | -7.93 | -5.62 | 0.23
Thap11 (THAP domain containing 11) | high cell count with doxorubicin only | 3.04 | 1.18 | 2.36 | 1.21
Ift27 (intraflagellar transport 27) | no change with or without drug | 0.22 | 0.17 | 0.22 | 0.96
Pld3 (phospholipase D family member 3) | no change with or without drug | -0.45 | -0.84 | 0.22 | 0.9
Pcsk7 (proprotein convertase subtilisin/kexin type 7) | no change with or without drug | -0.22 | 0.51 | -0.45 | 0.92
Bpifc (BPI fold containing family C) | no change with or without drug | 0 | 0 | 0.11 | 0.94
Gdf3 (growth differentiation factor 3) | no change with or without drug | -0.34 | -0.17 | -0.11 | 0.91
Tgm5 (transglutaminase 5) | no change with or without drug | -0.67 | -0.51 | -0.22 | 0.88
Nectin2 (nectin cell adhesion molecule 2) | no change with or without drug | 0.9 | -0.84 | 1.69 | 1.02
Slc17a5 | no change with or without drug | -0.67 | -0.34 | -0.34 | 0.88
Nat8f1 (N-acetyltransferase 8 (GCN5-related) family member 1) | low cell count with doxorubicin only (active) | -2.36 | -1.52 | -1.46 | 0.73
Armh4 (armadillo-like helical domain containing 4) | no change with or without drug | 0.34 | -0.17 | 0.56 | 0.97
Htr5b (5-hydroxytryptamine (serotonin) receptor 5B) | no change with or without drug | -0.67 | -1.18 | 0.22 | 0.88
Mrm3 (mitochondrial rRNA methyltransferase 3) | no change with or without drug | -0.22 | -0.84 | 0.45 | 0.92
Lage3 (L antigen family, member 3) | no change with or without drug | 0.11 | 1.18 | -0.56 | 0.95
Jkampl (JNK1/MAPK8 associated membrane protein like) | high cell count without drug only | 0.67 | 3.2 | -1.12 | 1
Fzd10 (frizzled class receptor 10) | no change with or without drug | -0.56 | 0.34 | -0.67 | 0.89
Prkce (protein kinase C, epsilon) | high cell count with doxorubicin only | 2.25 | 0.51 | 2.02 | 1.14
Ccdc180 (coiled-coil domain containing 180) | no change with or without drug | -1.57 | -0.17 | -1.46 | 0.8
Mx1 (MX dynamin-like GTPase 1) | no change with or without drug | 0.45 | -0.34 | 0.79 | 0.98
Tti1 (TELO2 interacting protein 1) | high cell count with doxorubicin only | 2.02 | 0.84 | 1.57 | 1.12
Il22b (interleukin 22B) | no change with or without drug | -0.22 | -0.17 | 0 | 0.92
Plxna2 (plexin A2) | no change with or without drug | 0.45 | -0.17 | 0.67 | 0.98
